Measurements: the supplement of paper PMC4604168 (melanoma cell lines)
The other results are listed elsewhere or left out. Single values are uncertain, as repeats are few or missing.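 Imaging used 1,536-well plates; nuclei positive for cleaved PARP by antibody were divided by total DNA-stained nuclei to yield the apoptosis fraction. Doses for screening kept most cells viable, and cell lines differ markedly in resting and induced cleaved-PARP levels.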

Assays:
Assay in all cases: cleaved PARP positive nuclei fraction relative to DMSO control; melanoma cells; higher = more apoptosis
Conditions in all cases: library dose: low library concentration; 72 h
[1] = system: 501Mel
[2] = system: A101D
[3] = system: A2058
[4] = system: A375
[5] = system: C32
[6] = system: CBRC008 (line from a melanoma biopsy)
[7] = system: CBRC013 (line from a melanoma biopsy)
[8] = system: CBRC014 (line from a melanoma biopsy)
[9] = system: CBRC016 (line from a melanoma biopsy)
[10] = system: CBRC017 (line from a melanoma biopsy)
[11] = system: COLO792
[12] = system: COLO800
[13] = system: COLO829
[14] = system: G361
[15] = system: IPC-298
[16] = system: IST-MEL1
[17] = system: LB2518-MEL
[18] = system: LOXIMVI
[19] = system: MEL-HO
[20] = system: CBRC034 (line from a melanoma biopsy)

Structure (SMILES) | cleaved PARP positive nuclei fraction [1] | cleaved PARP positive nuclei fraction [2] | cleaved PARP positive nuclei fraction [3] | cleaved PARP positive nuclei fraction [4] | cleaved PARP positive nuclei fraction [5] | cleaved PARP positive nuclei fraction [6] | cleaved PARP positive nuclei fraction [7] | cleaved PARP positive nuclei fraction [8] | cleaved PARP positive nuclei fraction [9] | cleaved PARP positive nuclei fraction [10] | cleaved PARP positive nuclei fraction [11] | cleaved PARP positive nuclei fraction [12] | cleaved PARP positive nuclei fraction [13] | cleaved PARP positive nuclei fraction [14] | cleaved PARP positive nuclei fraction [15] | cleaved PARP positive nuclei fraction [16] | cleaved PARP positive nuclei fraction [17] | cleaved PARP positive nuclei fraction [18] | cleaved PARP positive nuclei fraction [19] | cleaved PARP positive nuclei fraction [20]
Cn1c(Nc2ccc(C(F)(F)F)cc2)nc2cc(Oc3ccnc(-c4ncc(C(F)(F)F)[nH]4)c3)ccc21 + Cc1ccc(NC(=O)c2cccc(N(C)C)c2)cc1NC(=O)c1ccc(O)cc1 [ZM336372] (first compound 0.08 µM, partner dose 2 µM) | 289% | 136% | 260% | 482% | 181% | 291% | 159% | 106% | 113% | 116% | 193% | 108% | 194% | 226% | 179% | 77.6% | 213% | 400% | 141% | 
Cc1nc(Nc2ncc(C(=O)Nc3c(C)cccc3Cl)s2)cc(N2CCN(CCO)CC2)n1 [dasatanib] + Cc1ccc(NC(=O)c2cccc(N(C)C)c2)cc1NC(=O)c1ccc(O)cc1 [ZM336372] (first compound 0.004 µM, partner dose 2 µM) | 92.8% | 92.3% | 225% | 67.5% | 217% | 108% | 98.8% | 102% | 62.8% | 118% | 105% | 125% | 66.7% | 108% | 564% | 182% | 65.9% | 125% | 108% | 
C[C@]1(c2nc3c(C(N)=O)cccc3[nH]2)CCCN1 [Veliparib] + Cn1cncc1[C@@](N)(c1ccc(Cl)cc1)c1ccc2c(c1)c(-c1cccc(Cl)c1)cc(=O)n2C [tipifarnib] (first compound 1.4 µM, partner dose 0.01 µM) | 114% | 56% | 182% | 224% | 128% | 102% | 154% | 108% | 134% | 109% | 123% | 60% | 67.4% | 113% | 147% | 318% | 113% | 61.3% | 109% | 
Cn1nnc2c(C(N)=O)ncn2c1=O [temozolomide] + CO[C@@H]1[C@H](N(C)C(=O)c2ccccc2)C[C@H]2O[C@]1(C)n1c3ccccc3c3c4c(c5c6ccccc6n2c5c31)C(=O)NC4 [Midostaurin] (first compound 2 µM, partner dose 0.08 µM) | 265% | 191% | 237% | 63.3% | 58.7% | 59% | 65.9% | 105% | 159% | 127% | 169% | 89.8% | 43.6% | 103% | 31.9% | 208% | 93.3% | 85.8% | 88.7% | 
Cc1cc(N2CCOCC2)cc2[nH]c(-c3c(NC[C@@H](O)c4cccc(Cl)c4)cc[nH]c3=O)nc12 + CN(C)S(=O)(=O)c1ccc2c(c1)/C(=C/c1cc3c([nH]1)CCCC3)C(=O)N2 [SU6656] (first compound 0.2 µM, partner dose 0.4 µM) | 96.1% | 51.2% | 84% | 152% | 628% | 481% | 173% | 128% | 94.4% | 98.9% | 241% | 108% | 274% | 249% | 129% | 54.3% | 114% | 54.9% | 73.8% | 
Cc1nc(Nc2ncc(C(=O)Nc3c(C)cccc3Cl)s2)cc(N2CCN(CCO)CC2)n1 [dasatanib] + O=C(CCCCCCC(=O)Nc1ccccc1)NO [vorinostat] (first compound 0.004 µM, partner dose 0.08 µM) | 111% | 98.3% | 111% | 49.3% | 383% | 86.6% | 71.3% | 99.1% | 162% | 103% | 97.1% | 120% | 117% | 215% | 350% | 57.1% | 50.5% | 486% | 71.3% | 
C#Cc1cccc(Nc2ncnc3cc(OCCOC)c(OCCOC)cc23)c1 [erlotinib] + Cn1c(Nc2ccc(C(F)(F)F)cc2)nc2cc(Oc3ccnc(-c4ncc(C(F)(F)F)[nH]4)c3)ccc21 [CHIR265] (first compound 0.8 µM, partner dose 0.08 µM) | 268% | 51.2% | 182% | 109% | 79.4% | 101% |  | 108% | 114% | 110% | 166% | 128% | 99.8% | 94.2% | 132% | 46.9% | 254% | 127% | 156% | 30.9%
CC(=O)c1c(C)c2cnc(Nc3ccc(N4CCNCC4)cn3)nc2n(C2CCCC2)c1=O [palbociclib] + C#Cc1cccc(Nc2ncnc3cc(OCCOC)c(OCCOC)cc23)c1 [erlotinib] (first compound 0.04 µM, partner dose 0.8 µM) | 185% | 215% | 129% | 325% | 69.2% | 71.6% |  | 109% | 70.4% | 128% | 114% | 252% | 122% | 75.6% | 136% | 167% | 39.6% | 127% | 167% | 387%
C=CCNC1=C2C[C@@H](C)C[C@H](OC)[C@H](O)[C@@H](C)/C=C(\C)[C@H](OC(N)=O)[C@@H](OC)/C=C\C=C(/C)C(=O)NC(=CC1=O)C2=O [Tanespimycin] + C[C@]1(c2nc3c(C(N)=O)cccc3[nH]2)CCCN1 [Veliparib] (first compound 0.002 µM, partner dose 1.4 µM) | 165% | 48.8% | 205% | 90.9% | 353% | 53.4% |  | 83.7% | 172% | 111% | 282% | 43.1% | 171% | 56.8% | 43.7% | 314% | 117% | 14.9% | 163% | 77%
COCC[n+]1c2c(n(Cc3cnccn3)c1C)C(=O)c1ccccc1C2=O + Nc1cccc2c1CN(C1CCC(=O)NC1=O)C2=O [lenalidomide] (first compound 0.0004 µM, partner dose 1 µM) | 63.8% | 99.8% | 83% | 237% | 75.1% | 746% |  | 92% | 203% | 79% | 86.7% | 29.8% | 127% | 52.7% | 91.2% | 57.1% | 116% | 89.4% | 91.8% | 63.9%
CC(=O)c1c(C)c2cnc(Nc3ccc(N4CCNCC4)cn3)nc2n(C2CCCC2)c1=O [palbociclib] + Cn1c(Nc2ccc(C(F)(F)F)cc2)nc2cc(Oc3ccnc(-c4ncc(C(F)(F)F)[nH]4)c3)ccc21 [CHIR265] (first compound 0.04 µM, partner dose 0.08 µM) | 163% | 166% | 99.9% | 864% | 219% | 59.5% |  | 110% | 190% | 127% | 797% | 150% | 43.7% | 190% | 163% | 106% | 442% | 119% | 120% | 47.1%
C=CCNC1=C2C[C@@H](C)C[C@H](OC)[C@H](O)[C@@H](C)/C=C(\C)[C@H](OC(N)=O)[C@@H](OC)/C=C\C=C(/C)C(=O)NC(=CC1=O)C2=O [Tanespimycin] + COCC[n+]1c2c(n(Cc3cnccn3)c1C)C(=O)c1ccccc1C2=O [YM155] (first compound 0.002 µM, partner dose 0.0004 µM) | 86% | 49.4% | 99.4% | 147% | 134% | 228% |  | 91.9% | 122% | 108% | 44.2% | 97.1% | 61.9% | 82.5% | 123% | 68.4% | 96.4% | 111% | 90.5% | 122%
Cn1c(Nc2ccc(C(F)(F)F)cc2)nc2cc(Oc3ccnc(-c4ncc(C(F)(F)F)[nH]4)c3)ccc21 + COCC[n+]1c2c(n(Cc3cnccn3)c1C)C(=O)c1ccccc1C2=O [YM155] (first compound 0.08 µM, partner dose 0.0004 µM) | 261% | 34.5% | 54.7% | 226% | 96% | 151% |  | 115% | 331% | 140% | 361% | 28.9% | 152% | 209% | 105% | 125% | 107% | 146% | 139% | 174%
CC(=O)c1c(C)c2cnc(Nc3ccc(N4CCNCC4)cn3)nc2n(C2CCCC2)c1=O [palbociclib] + C[C@]1(c2nc3c(C(N)=O)cccc3[nH]2)CCCN1 [Veliparib] (first compound 0.04 µM, partner dose 1.4 µM) | 104% | 111% | 151% | 476% | 85.7% | 40.7% |  | 115% | 37.8% | 187% | 60.8% | 40.7% | 88.2% | 105% | 99.9% | 70.7% | 132% | 205% | 45.5% | 54.2%
Clc1ccc(Nc2nnc(Cc3ccncc3)c3ccccc23)cc1 [vatalanib] + C#Cc1cccc(Nc2ncnc3cc(OCCOC)c(OCCOC)cc23)c1 [erlotinib] (first compound 2 µM, partner dose 0.8 µM) | 84.5% | 94% | 316% | 103% | 72.9% | 368% |  | 118% | 54.9% | 175% | 133% | 63.7% | 98.7% | 105% | 94.3% | 147% | 77.8% | 168% | 119% | 151%
Cc1cc(N2CCOCC2)cc2[nH]c(-c3c(NC[C@@H](O)c4cccc(Cl)c4)cc[nH]c3=O)nc12 + Cn1cncc1[C@@](N)(c1ccc(Cl)cc1)c1ccc2c(c1)c(-c1cccc(Cl)c1)cc(=O)n2C [tipifarnib] (first compound 0.2 µM, partner dose 0.01 µM) | 109% | 173% | 214% | 435% | 130% | 290% | 96.7% | 99.7% | 106% | 121% | 190% | 293% | 42.1% | 184% | 229% | 181% | 60% | 108% | 164% | 

Single entries from the results shown:
For cleaved PARP positive nuclei fraction [7], Cc1cc(N2CCOCC2)cc2[nH]c(-c3c(NC[C@@H](O)c4cccc(Cl)c4)cc[nH]c3=O)nc12 + Cn1cncc1[C@@](N)(c1ccc(Cl)cc1)c1ccc2c(c1)c(-c1cccc(Cl)c1)cc(=O)n2C [tipifarnib] (first compound 0.2 µM, partner dose 0.01 µM) is listed with 96.7%
For cleaved PARP positive nuclei fraction [8], CC(=O)c1c(C)c2cnc(Nc3ccc(N4CCNCC4)cn3)nc2n(C2CCCC2)c1=O [palbociclib] + C#Cc1cccc(Nc2ncnc3cc(OCCOC)c(OCCOC)cc23)c1 [erlotinib] (first compound 0.04 µM, partner dose 0.8 µM) is listed with 109%
